# Hit rate of the full screen: of about 360,000 compounds, about 7,500 (2.1%) were called active. The call rests on the fitted dose curve; in most records, active means well fitted inhibition curve with a large enough effect; inconclusive means small, poorly fitted or top-dose-only effect, or effect the other way; inactive means flat fitted curve, though single readings scatter. Inconclusive results, whose numbers are uncertain, are shown. A potency beside an inconclusive call is a rough fit, not a confirmed value.
# Experiment: Nrf2 qHTS screen for inhibitors; further: nearly all actives have a fitted effect of over 60% in size
# Settings: A549 ARE-Fluc reporter, luciferase luminescence, 18-24 h; series mostly up to 46 µM
# How it was run: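 A549 ARE_Fluc cells (5000/well, 5% FBS OPTI-MEM) pre-incubated 2 h, then treated with compounds 18-24 h at 37C/5% CO2 in concentration-response. CellTiter-Fluor viability read first; BugLite luciferase luminescence after 15 min at room temperature gives Nrf2 activity.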
# Potency means the concentration at half of the fitted maximal effect.
row,SMILES,Potency
1,COc1cc(/C=C2\C(=N)N3N=C(S(C)(=O)=O)SC3=NC2=O)ccc1OC(=O)c1cccs1,"inconclusive: 29.1 µM [falling, single point]"
